Data on one compound can be found in PubChem BioAssay AID1117359 (Southern Research Institute, 2015).

The assay deals with THP-1 viability, CellTiter-Glo luminescence, 72 h. Briefly: THP-1 cell cytotoxicity, dose response, cytotoxicity control for Vif-APOBEC3G degradation inhibitor project, THP-1 cells (AID 1117359).

As for `Cc1c2cc(O)c(=O)cc-2oc2cc(O)c(O)cc12`, the 50% cytotoxic concentration (CC50) (commonly the concentration that lowers cell viability or growth by half) is 18.6 µM.
